We go through one substance from article PMC12559371.

By UniProt entry, the sequences of proteins in these tests, tags left out.
UniProt Q6A4J8: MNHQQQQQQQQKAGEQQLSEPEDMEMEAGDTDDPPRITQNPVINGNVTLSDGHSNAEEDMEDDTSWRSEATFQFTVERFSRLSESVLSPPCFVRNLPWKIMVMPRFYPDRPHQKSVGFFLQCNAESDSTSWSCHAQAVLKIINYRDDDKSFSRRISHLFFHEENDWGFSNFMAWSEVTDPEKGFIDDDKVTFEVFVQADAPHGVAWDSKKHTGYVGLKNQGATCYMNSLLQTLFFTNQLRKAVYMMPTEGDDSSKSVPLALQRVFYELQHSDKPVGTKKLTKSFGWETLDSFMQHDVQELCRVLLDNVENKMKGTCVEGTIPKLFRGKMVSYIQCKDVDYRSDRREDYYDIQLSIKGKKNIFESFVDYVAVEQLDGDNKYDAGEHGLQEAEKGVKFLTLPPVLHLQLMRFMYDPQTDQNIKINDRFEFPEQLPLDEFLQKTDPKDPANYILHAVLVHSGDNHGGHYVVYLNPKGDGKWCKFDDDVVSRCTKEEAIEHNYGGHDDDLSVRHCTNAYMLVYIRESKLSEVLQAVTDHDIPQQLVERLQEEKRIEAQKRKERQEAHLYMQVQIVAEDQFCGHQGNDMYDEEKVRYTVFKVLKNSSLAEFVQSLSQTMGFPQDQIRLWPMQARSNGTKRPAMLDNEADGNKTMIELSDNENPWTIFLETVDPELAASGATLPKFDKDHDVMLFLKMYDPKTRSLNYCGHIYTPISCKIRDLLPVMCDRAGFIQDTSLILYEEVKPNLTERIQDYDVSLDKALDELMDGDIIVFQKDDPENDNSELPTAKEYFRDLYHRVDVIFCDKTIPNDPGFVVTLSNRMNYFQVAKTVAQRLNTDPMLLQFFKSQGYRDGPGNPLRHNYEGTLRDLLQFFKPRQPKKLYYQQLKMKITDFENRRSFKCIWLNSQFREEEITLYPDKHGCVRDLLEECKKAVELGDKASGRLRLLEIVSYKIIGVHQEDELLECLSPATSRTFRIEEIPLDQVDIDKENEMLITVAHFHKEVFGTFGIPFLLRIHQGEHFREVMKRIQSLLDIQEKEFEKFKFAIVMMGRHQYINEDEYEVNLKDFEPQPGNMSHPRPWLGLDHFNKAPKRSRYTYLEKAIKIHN
UniProt P52480: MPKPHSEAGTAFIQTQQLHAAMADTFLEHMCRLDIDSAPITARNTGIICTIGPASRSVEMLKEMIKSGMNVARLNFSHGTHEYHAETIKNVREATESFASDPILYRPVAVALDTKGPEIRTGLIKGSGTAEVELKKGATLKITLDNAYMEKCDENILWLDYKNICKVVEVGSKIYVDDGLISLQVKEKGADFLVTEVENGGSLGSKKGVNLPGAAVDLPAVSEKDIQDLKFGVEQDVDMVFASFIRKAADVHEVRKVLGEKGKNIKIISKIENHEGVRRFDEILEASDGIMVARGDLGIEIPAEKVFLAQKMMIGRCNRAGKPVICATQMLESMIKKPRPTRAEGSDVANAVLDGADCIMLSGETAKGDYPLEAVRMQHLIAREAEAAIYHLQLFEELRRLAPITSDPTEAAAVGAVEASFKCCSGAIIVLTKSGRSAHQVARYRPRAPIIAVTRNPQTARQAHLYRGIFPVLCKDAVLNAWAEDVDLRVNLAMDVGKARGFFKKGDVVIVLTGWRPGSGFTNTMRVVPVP

No constants are given. Whether binding was seen depends on the method and setting. Binding seen in cells or lysates may run through a third protein. Some entries that bind do so weakly or less than the wild type.

For the experiment, the target named is Ubiquitin-specific protease 7 (mouse (endogenous in RAW 264.7)) (UniProt Q6A4J8). Description: co-IP; cell lysates (100 ug protein) immunoprecipitated with 5 ug anti-USP7 or anti-PKM2 overnight at 4 °C, Protein A agarose beads, blot probed with anti-PKM2; IgG as negative control; normal and acute inflammation (LPS/IFN-γ) conditions.

Turning to “Pyruvate kinase M2 (from UniProt P52480 1-531) (enzyme)”, the binding result is “binds”.
